Assay results published in the supplement of paper PMC7024190.
The list shows a part of the results. Single values are uncertain here, since repeats match poorly.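 A first-round screen of about ten thousand compounds sought those raising reporter output, using human embryonic kidney cells briefly transfected with a plasmid carrying a Renilla luciferase gene driven by the HSV-TK promoter.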

Each molecule was assayed on HEK 293FT (assay: log relative Renilla luciferase luminescence (reporter expression vs reference, reference not stated) (log (base not stated)); higher = higher recombinant reporter expression). Conditions: 10 µM; time after transfection 48 h.

Structure (SMILES) | log
CN1CC[C@]23CCCC[C@H]2[C@H]1Cc1ccc(O)cc13 | 0.0675
C[C@H]1CCC[C@H](O)CCCCCc2cc(O)cc(O)c2C(=O)O1 | -0.0897
Cc1ccc(-c2nc3ccc(C)cn3c2CC(=O)N(C)C)cc1 | -0.176
CC[C@@H](C(N)=O)N1CCCC1=O | -0.164
NC1=NC(=O)C(c2ccccc2)O1 (stereo not given) [Pemoline] | -0.0803
CNC(=O)Oc1ccc2c(c1)[C@]1(C)CCN(C)[C@@H]1N2C [Physostigmine] | -0.13
C[N+]1(CCC(C(N)=O)(c2ccccc2)c2ccccc2)CCCCC1 | 0.00338
C[C@]12CC[C@H]3[C@@H](CCC4=CC(=O)CC[C@@]43C)[C@@H]1CC[C@@H]2O [Testosterone] | 0.075
O=c1c2ccccc2[se]n1-c1ccccc1 | 0.00749
C=C(C)CN1CC[C@]23c4c5ccc(O)c4O[C@H]2c2[nH]c4ccccc4c2C[C@@]3(O)C1C5 | -0.0215

Random excerpt: 2 compounds from above
Structure (SMILES) | log
C=C(C)CN1CC[C@]23c4c5ccc(O)c4O[C@H]2c2[nH]c4ccccc4c2C[C@@]3(O)C1C5 | -0.0215
O=c1c2ccccc2[se]n1-c1ccccc1 | 0.00749
